{"sequences": {"note": "The chains behind the UniProt entries cited, without tags or fusion partners. Where a name states a change or a piece, a line headed by the entry shows the natural chain unless it says otherwise.", "UniProt Q9P2E9": "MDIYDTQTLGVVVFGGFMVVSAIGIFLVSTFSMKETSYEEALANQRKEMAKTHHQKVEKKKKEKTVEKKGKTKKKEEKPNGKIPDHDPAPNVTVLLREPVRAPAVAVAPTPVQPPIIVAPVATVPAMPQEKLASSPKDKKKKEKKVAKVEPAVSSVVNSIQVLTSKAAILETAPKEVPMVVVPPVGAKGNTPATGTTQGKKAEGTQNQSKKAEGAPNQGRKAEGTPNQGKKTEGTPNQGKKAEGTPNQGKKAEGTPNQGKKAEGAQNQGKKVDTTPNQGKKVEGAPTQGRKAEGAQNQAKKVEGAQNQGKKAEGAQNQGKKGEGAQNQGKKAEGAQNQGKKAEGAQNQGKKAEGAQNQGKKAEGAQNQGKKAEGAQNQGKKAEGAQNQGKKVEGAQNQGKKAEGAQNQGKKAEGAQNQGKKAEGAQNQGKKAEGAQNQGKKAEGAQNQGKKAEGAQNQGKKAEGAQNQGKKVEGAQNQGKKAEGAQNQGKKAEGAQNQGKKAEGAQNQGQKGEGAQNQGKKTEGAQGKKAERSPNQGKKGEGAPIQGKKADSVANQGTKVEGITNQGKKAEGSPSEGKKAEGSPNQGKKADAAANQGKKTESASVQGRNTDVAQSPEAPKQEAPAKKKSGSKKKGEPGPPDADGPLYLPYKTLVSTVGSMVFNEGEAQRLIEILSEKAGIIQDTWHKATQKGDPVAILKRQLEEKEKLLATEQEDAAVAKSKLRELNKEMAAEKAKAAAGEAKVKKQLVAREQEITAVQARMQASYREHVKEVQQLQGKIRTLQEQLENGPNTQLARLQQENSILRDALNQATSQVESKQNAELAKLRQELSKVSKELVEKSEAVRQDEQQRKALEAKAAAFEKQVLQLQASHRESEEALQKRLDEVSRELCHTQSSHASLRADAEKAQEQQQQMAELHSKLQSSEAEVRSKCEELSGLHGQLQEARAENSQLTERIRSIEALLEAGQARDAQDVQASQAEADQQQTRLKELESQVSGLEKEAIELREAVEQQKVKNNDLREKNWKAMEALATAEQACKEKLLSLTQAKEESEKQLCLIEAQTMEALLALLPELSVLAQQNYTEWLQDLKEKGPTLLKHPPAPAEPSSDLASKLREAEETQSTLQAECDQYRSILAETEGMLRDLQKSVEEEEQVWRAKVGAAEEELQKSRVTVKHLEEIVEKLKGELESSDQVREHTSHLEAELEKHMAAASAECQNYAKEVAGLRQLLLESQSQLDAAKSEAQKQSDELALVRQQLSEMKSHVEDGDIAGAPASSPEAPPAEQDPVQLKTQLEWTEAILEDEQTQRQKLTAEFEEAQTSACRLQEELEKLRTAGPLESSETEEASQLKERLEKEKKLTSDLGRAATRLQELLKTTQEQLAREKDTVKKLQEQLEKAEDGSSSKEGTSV", "UniProt Q9UBE0": "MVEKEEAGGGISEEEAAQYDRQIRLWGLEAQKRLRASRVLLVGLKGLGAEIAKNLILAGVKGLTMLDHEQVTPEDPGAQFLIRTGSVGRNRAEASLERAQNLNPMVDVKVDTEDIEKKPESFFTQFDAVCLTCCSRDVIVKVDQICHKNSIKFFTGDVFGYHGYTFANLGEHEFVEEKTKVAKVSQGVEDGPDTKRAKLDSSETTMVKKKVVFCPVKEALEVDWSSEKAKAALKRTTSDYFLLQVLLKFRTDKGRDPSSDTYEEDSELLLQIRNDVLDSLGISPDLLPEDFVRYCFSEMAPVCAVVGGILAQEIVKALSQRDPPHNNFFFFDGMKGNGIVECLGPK", "UniProt P60903, whole entry": "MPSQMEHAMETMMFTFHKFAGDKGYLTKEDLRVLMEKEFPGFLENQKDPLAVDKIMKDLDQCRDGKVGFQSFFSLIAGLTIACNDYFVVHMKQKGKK", "UniProt Q9BY42": "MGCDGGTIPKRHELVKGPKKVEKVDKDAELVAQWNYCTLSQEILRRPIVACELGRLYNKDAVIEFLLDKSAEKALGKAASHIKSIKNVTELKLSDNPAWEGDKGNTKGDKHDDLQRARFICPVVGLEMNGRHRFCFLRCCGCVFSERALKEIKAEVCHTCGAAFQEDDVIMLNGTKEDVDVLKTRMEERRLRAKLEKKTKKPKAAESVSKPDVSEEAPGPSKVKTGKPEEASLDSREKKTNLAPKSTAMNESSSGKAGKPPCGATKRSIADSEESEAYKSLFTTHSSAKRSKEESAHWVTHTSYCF", "UniProt P78345": "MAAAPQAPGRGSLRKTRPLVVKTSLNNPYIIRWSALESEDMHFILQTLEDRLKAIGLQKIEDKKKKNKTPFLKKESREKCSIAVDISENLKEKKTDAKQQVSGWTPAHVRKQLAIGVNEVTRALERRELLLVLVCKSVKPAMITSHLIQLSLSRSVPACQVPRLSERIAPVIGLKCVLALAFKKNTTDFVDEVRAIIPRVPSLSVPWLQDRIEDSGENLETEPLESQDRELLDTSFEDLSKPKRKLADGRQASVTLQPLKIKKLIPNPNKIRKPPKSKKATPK", "UniProt P23921": "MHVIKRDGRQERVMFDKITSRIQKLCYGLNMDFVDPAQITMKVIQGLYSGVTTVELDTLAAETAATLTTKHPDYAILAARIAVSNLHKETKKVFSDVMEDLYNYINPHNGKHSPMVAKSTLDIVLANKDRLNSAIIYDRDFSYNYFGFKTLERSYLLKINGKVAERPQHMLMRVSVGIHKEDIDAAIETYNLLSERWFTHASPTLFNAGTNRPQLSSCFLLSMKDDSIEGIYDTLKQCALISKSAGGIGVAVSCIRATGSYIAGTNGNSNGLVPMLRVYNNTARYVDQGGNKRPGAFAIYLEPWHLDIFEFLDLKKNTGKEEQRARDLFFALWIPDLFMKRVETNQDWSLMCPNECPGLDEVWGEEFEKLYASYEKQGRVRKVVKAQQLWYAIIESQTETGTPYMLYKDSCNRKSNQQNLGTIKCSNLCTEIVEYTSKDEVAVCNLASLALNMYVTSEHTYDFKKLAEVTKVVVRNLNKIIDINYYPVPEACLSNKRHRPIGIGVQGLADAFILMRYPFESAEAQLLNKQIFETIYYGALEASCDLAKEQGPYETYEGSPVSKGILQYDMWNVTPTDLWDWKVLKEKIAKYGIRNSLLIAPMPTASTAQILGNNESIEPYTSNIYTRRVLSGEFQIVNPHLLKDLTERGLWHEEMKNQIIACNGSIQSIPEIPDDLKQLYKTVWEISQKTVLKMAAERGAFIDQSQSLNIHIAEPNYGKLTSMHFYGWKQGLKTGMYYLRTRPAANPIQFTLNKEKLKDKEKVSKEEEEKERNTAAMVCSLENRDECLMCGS", "UniProt Q5VZM2, whole entry, looked up": "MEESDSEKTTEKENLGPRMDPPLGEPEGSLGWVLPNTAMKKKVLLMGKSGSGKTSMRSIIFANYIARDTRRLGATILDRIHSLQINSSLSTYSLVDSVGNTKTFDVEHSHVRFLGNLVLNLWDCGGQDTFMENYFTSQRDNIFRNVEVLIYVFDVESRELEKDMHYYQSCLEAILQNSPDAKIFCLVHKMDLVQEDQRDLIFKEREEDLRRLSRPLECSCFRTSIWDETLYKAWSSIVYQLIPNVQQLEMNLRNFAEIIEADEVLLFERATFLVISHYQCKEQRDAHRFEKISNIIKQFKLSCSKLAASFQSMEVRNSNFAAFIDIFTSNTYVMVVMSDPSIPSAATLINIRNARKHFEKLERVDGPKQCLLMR", "UniProt Q8IVG5": "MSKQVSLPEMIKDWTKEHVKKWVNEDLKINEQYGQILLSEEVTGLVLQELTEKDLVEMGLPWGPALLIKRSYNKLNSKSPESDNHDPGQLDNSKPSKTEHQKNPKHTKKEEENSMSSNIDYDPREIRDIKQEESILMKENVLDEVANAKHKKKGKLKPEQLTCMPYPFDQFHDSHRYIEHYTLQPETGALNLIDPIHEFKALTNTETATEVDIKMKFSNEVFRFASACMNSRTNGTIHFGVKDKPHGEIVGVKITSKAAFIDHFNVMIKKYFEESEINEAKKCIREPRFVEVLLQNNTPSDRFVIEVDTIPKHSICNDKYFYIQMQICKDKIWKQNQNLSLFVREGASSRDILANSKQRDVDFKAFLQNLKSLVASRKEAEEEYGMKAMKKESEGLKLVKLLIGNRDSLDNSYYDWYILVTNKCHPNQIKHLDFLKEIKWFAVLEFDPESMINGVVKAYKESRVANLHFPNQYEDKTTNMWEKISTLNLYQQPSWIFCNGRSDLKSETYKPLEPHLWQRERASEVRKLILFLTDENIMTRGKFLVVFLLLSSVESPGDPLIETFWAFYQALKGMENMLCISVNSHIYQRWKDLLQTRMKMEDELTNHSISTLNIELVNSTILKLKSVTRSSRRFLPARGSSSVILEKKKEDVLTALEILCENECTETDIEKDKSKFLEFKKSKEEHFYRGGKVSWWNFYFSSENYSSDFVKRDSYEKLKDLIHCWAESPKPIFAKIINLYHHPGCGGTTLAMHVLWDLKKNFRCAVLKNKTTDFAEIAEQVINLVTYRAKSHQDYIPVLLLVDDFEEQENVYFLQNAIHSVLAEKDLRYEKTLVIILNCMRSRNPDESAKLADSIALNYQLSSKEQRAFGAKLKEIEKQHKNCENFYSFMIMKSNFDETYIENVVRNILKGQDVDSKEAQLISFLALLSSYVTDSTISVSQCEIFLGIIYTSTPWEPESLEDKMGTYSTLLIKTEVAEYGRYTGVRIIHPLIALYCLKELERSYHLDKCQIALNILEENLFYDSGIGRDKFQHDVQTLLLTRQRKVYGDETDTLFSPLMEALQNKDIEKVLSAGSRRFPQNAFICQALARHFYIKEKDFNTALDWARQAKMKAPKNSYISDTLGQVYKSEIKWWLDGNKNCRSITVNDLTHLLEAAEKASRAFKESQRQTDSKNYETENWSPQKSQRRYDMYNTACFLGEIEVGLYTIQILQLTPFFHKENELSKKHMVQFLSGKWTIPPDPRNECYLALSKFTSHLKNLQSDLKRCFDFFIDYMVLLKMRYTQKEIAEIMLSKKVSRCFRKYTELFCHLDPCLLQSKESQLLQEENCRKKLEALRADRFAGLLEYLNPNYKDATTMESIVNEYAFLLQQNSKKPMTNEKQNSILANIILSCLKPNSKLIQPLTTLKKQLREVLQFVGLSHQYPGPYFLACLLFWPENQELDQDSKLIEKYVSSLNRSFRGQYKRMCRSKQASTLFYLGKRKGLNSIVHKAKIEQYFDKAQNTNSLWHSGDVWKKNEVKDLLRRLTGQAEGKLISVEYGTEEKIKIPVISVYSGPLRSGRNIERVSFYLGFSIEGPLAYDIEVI", "UniProt Q6PCB5": "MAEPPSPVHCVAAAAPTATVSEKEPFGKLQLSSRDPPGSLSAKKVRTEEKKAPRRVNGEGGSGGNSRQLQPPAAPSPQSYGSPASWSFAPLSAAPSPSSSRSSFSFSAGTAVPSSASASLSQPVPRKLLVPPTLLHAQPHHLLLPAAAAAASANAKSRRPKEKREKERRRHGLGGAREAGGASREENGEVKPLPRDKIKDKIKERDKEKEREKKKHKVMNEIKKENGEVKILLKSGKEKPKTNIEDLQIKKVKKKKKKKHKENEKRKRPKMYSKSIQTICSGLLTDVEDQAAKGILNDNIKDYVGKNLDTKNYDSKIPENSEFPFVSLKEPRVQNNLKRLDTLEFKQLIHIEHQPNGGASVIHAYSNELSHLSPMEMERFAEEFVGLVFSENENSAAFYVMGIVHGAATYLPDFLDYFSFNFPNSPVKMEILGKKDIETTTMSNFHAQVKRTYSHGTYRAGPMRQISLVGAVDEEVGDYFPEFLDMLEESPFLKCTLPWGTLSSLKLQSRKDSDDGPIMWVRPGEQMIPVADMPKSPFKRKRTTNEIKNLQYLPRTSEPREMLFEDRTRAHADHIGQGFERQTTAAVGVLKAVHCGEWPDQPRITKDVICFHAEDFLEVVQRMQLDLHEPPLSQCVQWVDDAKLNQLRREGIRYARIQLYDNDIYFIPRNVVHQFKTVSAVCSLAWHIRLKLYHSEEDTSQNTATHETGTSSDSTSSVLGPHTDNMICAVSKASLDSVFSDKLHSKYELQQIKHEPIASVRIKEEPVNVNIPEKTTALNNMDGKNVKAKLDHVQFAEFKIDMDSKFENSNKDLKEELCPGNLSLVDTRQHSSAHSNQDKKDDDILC", "UniProt Q8IZ73": "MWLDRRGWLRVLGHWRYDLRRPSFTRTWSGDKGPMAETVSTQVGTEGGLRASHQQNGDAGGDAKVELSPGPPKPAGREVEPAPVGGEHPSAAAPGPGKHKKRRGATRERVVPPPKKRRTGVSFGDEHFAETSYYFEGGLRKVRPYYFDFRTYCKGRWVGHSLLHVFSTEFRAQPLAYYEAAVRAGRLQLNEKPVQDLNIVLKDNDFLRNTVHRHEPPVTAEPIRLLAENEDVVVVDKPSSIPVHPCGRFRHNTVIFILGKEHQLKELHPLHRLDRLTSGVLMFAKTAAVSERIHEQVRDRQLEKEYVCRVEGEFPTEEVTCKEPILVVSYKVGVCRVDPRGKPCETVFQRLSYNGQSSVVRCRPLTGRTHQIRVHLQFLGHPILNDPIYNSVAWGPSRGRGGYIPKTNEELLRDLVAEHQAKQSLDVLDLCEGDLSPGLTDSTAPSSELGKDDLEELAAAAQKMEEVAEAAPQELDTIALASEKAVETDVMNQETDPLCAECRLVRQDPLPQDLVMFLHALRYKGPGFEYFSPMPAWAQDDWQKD"}, "source": "the supplement of paper PMC12067093", "about": "“Discovery and optimisation of a covalent ligand for TRIM25 and its application to targeted protein ubiquitination” (Chemical Science, 2025)", "compound": "CC1Cc2ccccc2N1C(=O)C1CCCN(C1)C(=O)CCl (mixture of isomers) [TRIM25 ligand 11 (diastereomer mixture)]", "assay": "probe-labelled cysteine peptide fold change vs DMSO (competition) (log2 fold change); higher = less target engagement (more negative = stronger competition)", "details": "THP-1, incubation time: 4 h", "note": "The other results are listed elsewhere or left out.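 Further: competitive chemoproteomic profiling in live THP-1 cells with an iodoacetamide desthiobiotin (IA-DTB) probe, comparing probe-labelled peptide intensities in compound-treated cells against DMSO-treated controls.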"}
{"target": "RRBP1_Q9P2E9_933_CEELSGLHGQLQEAR (UniProt Q9P2E9)", "values": [{"measurement": "probe-labelled cysteine peptide fold change", "setting": "10 µM", "result": 0.402}, {"measurement": "probe-labelled cysteine peptide fold change", "setting": "50 µM", "result": 0.111}]}
{"target": "SAE1_Q9UBE0_134_KPESFFTQFDAVCLTCCSR (UniProt Q9UBE0)", "values": [{"measurement": "probe-labelled cysteine peptide fold change", "setting": "10 µM", "result": 0.107}, {"measurement": "probe-labelled cysteine peptide fold change", "setting": "50 µM", "result": 0.0728}]}
{"target": "RPS29_P62273_39_YGLNMCR (UniProt P62273)", "values": [{"measurement": "probe-labelled cysteine peptide fold change", "setting": "10 µM", "result": -0.106}, {"measurement": "probe-labelled cysteine peptide fold change", "setting": "50 µM", "result": -0.0278}]}
{"target": "RPS3A_P61247_96_NCLTNFHGMDLTR (UniProt P61247)", "values": [{"measurement": "probe-labelled cysteine peptide fold change", "setting": "10 µM", "result": -0.0433}, {"measurement": "probe-labelled cysteine peptide fold change", "setting": "50 µM", "result": -0.0888}]}
{"target": "RRP1_P56182_198_FIDPFCR (UniProt P56182)", "values": [{"measurement": "probe-labelled cysteine peptide fold change", "setting": "10 µM", "result": 0.148}, {"measurement": "probe-labelled cysteine peptide fold change", "setting": "50 µM", "result": 0.156}]}
{"target": "S100A10_P60903_62_DLDQCR (UniProt P60903)", "values": [{"measurement": "probe-labelled cysteine peptide fold change", "setting": "10 µM", "result": -0.0944}, {"measurement": "probe-labelled cysteine peptide fold change", "setting": "50 µM", "result": -0.0317}]}
{"target": "RPS4Y1_P22090_181_FDTGNLCMVIGGANLGR (UniProt P22090)", "values": [{"measurement": "probe-labelled cysteine peptide fold change", "setting": "10 µM", "result": -0.0672}, {"measurement": "probe-labelled cysteine peptide fold change", "setting": "50 µM", "result": 0.0167}]}
{"target": "RTFDC1_Q9BY42_262_AGKPPCGATK (UniProt Q9BY42)", "values": [{"measurement": "probe-labelled cysteine peptide fold change", "setting": "10 µM", "result": -0.0213}, {"measurement": "probe-labelled cysteine peptide fold change", "setting": "50 µM", "result": -0.1}]}
{"target": "RPRD1B_Q9NQG5_234_TVDEACLLLAEYNGR (UniProt Q9NQG5)", "values": [{"measurement": "probe-labelled cysteine peptide fold change", "setting": "10 µM", "result": -0.0354}, {"measurement": "probe-labelled cysteine peptide fold change", "setting": "50 µM", "result": 0.0947}]}
{"target": "RTFDC1_Q9BY42_121_FICPVVGLEMNGR (UniProt Q9BY42)", "values": [{"measurement": "probe-labelled cysteine peptide fold change", "setting": "10 µM", "result": 0.0986}, {"measurement": "probe-labelled cysteine peptide fold change", "setting": "50 µM", "result": -0.0821}]}
{"target": "RPS28_P62857_27_TGSQGQCTQVR (UniProt P62857)", "values": [{"measurement": "probe-labelled cysteine peptide fold change", "setting": "10 µM", "result": -0.262}, {"measurement": "probe-labelled cysteine peptide fold change", "setting": "50 µM", "result": -0.0399}]}
{"target": "RPS8_P62241_182_LLACIASRPGQCGR (UniProt P62241)", "values": [{"measurement": "probe-labelled cysteine peptide fold change", "setting": "10 µM", "result": -0.25}, {"measurement": "probe-labelled cysteine peptide fold change", "setting": "50 µM", "result": -0.369}]}
{"target": "SAE1_Q9UBE0_130+134_KPESFFTQFDAVCLTCCSR (UniProt Q9UBE0)", "values": [{"measurement": "probe-labelled cysteine peptide fold change", "setting": "10 µM", "result": 0.16}, {"measurement": "probe-labelled cysteine peptide fold change", "setting": "50 µM", "result": 0.0845}]}
{"target": "RPP38_P78345_176_CVLALAFKK (UniProt P78345)", "values": [{"measurement": "probe-labelled cysteine peptide fold change", "setting": "10 µM", "result": -0.368}, {"measurement": "probe-labelled cysteine peptide fold change", "setting": "50 µM", "result": -0.198}]}
{"target": "SAAL1_Q96ER3_248_LVPCILEAAK (UniProt Q96ER3)", "values": [{"measurement": "probe-labelled cysteine peptide fold change", "setting": "10 µM", "result": -0.184}, {"measurement": "probe-labelled cysteine peptide fold change", "setting": "50 µM", "result": -0.0454}]}
{"target": "S100A8_P05109_42_LLETECPQYIR (UniProt P05109)", "values": [{"measurement": "probe-labelled cysteine peptide fold change", "setting": "10 µM", "result": -0.0697}, {"measurement": "probe-labelled cysteine peptide fold change", "setting": "50 µM", "result": -0.229}]}
{"target": "RRM1_P23921_779+787_NTAAMVCSLENRDECLMCGS (UniProt P23921)", "values": [{"measurement": "probe-labelled cysteine peptide fold change", "setting": "10 µM", "result": -0.483}, {"measurement": "probe-labelled cysteine peptide fold change", "setting": "50 µM", "result": -0.495}]}
{"target": "RPS8_P62241_100_NCIVLIDSTPYR (UniProt P62241)", "values": [{"measurement": "probe-labelled cysteine peptide fold change", "setting": "10 µM", "result": 0.097}, {"measurement": "probe-labelled cysteine peptide fold change", "setting": "50 µM", "result": -0.0705}]}
{"target": "RUNX3_Q13761_22_RFTPPSPAFPCGGGGGK (UniProt Q13761)", "values": [{"measurement": "probe-labelled cysteine peptide fold change", "setting": "10 µM", "result": 0.0129}, {"measurement": "probe-labelled cysteine peptide fold change", "setting": "50 µM", "result": -0.279}]}
{"target": "RXRB_P28702_30_EMHCGVASR (UniProt P28702)", "values": [{"measurement": "probe-labelled cysteine peptide fold change", "setting": "10 µM", "result": -0.0911}, {"measurement": "probe-labelled cysteine peptide fold change", "setting": "50 µM", "result": -0.328}]}
{"target": "RRAGB_Q5VZM2_185_IFCLVHK (UniProt Q5VZM2)", "values": [{"measurement": "probe-labelled cysteine peptide fold change", "setting": "10 µM", "result": 0.162}, {"measurement": "probe-labelled cysteine peptide fold change", "setting": "50 µM", "result": 0.183}]}
{"target": "SAMD9L_Q8IVG5_664_KKEDVLTALEILCENECTETDIEK (UniProt Q8IVG5)", "values": [{"measurement": "probe-labelled cysteine peptide fold change", "setting": "10 µM", "result": 0.0784}, {"measurement": "probe-labelled cysteine peptide fold change", "setting": "50 µM", "result": -0.0645}]}
{"target": "SAMD9_Q5K651_975+979_TEVIECGNYCGVR (UniProt Q5K651)", "values": [{"measurement": "probe-labelled cysteine peptide fold change", "setting": "10 µM", "result": 0.388}, {"measurement": "probe-labelled cysteine peptide fold change", "setting": "50 µM", "result": 0.22}]}
{"target": "RPS8_P62241_72_LDVGNFSWGSECCTRK (UniProt P62241)", "values": [{"measurement": "probe-labelled cysteine peptide fold change", "setting": "10 µM", "result": -0.359}, {"measurement": "probe-labelled cysteine peptide fold change", "setting": "50 µM", "result": -0.212}]}
{"target": "RPS12_P25398_106_VVGCSCVVVK (UniProt P25398)", "values": [{"measurement": "probe-labelled cysteine peptide fold change", "setting": "10 µM", "result": 0.0604}, {"measurement": "probe-labelled cysteine peptide fold change", "setting": "50 µM", "result": 0.111}]}
{"target": "RPS6_P62753_100_GCIVDANLSVLNLVIVK (UniProt P62753)", "values": [{"measurement": "probe-labelled cysteine peptide fold change", "setting": "10 µM", "result": -0.12}, {"measurement": "probe-labelled cysteine peptide fold change", "setting": "50 µM", "result": -0.183}]}
{"target": "RRM1_P23921_787_NTAAMVCSLENRDECLMCGS (UniProt P23921)", "values": [{"measurement": "probe-labelled cysteine peptide fold change", "setting": "10 µM", "result": -0.255}, {"measurement": "probe-labelled cysteine peptide fold change", "setting": "50 µM", "result": -0.3}]}
{"target": "RPS5_P46782_66_AQCPIVER (UniProt P46782)", "values": [{"measurement": "probe-labelled cysteine peptide fold change", "setting": "10 µM", "result": -0.0708}, {"measurement": "probe-labelled cysteine peptide fold change", "setting": "50 µM", "result": -0.0594}]}
{"target": "RSBN1L_Q6PCB5_595_AVHCGEWPDQPR (UniProt Q6PCB5)", "values": [{"measurement": "probe-labelled cysteine peptide fold change", "setting": "10 µM", "result": 0.121}, {"measurement": "probe-labelled cysteine peptide fold change", "setting": "50 µM", "result": -0.0484}]}
{"target": "SAMD9L_Q8IVG5_1085_RFPQNAFICQALAR (UniProt Q8IVG5)", "values": [{"measurement": "probe-labelled cysteine peptide fold change", "setting": "10 µM", "result": -0.0374}, {"measurement": "probe-labelled cysteine peptide fold change", "setting": "50 µM", "result": 0.149}]}
{"target": "RSBN1_Q5VWQ0_282_EVQTVCAGLTR (UniProt Q5VWQ0)", "values": [{"measurement": "probe-labelled cysteine peptide fold change", "setting": "10 µM", "result": 0.00457}, {"measurement": "probe-labelled cysteine peptide fold change", "setting": "50 µM", "result": -0.119}]}
{"target": "RTN3_O95197-3_42_SCSSSCAVHDLIFWR (UniProt O95197)", "values": [{"measurement": "probe-labelled cysteine peptide fold change", "setting": "10 µM", "result": -0.124}, {"measurement": "probe-labelled cysteine peptide fold change", "setting": "50 µM", "result": -0.737}]}
{"target": "RUFY1_Q96T51_603_ICEEQEQALQEMGLHLSQSK (UniProt Q96T51)", "values": [{"measurement": "probe-labelled cysteine peptide fold change", "setting": "10 µM", "result": 0.0221}, {"measurement": "probe-labelled cysteine peptide fold change", "setting": "50 µM", "result": -0.203}]}
{"target": "RRM1_P23921_444_DEVAVCNLASLALNMYVTSEHTYDFKK (UniProt P23921)", "values": [{"measurement": "probe-labelled cysteine peptide fold change", "setting": "10 µM", "result": 0.0269}, {"measurement": "probe-labelled cysteine peptide fold change", "setting": "50 µM", "result": 0.065}]}
{"target": "RWDD2B_P57060_105_MAMFSLACILPFK (UniProt P57060)", "values": [{"measurement": "probe-labelled cysteine peptide fold change", "setting": "10 µM", "result": -0.487}, {"measurement": "probe-labelled cysteine peptide fold change", "setting": "50 µM", "result": 0.0588}]}
{"target": "RPUSD2_Q8IZ73_344_GKPCETVFQR (UniProt Q8IZ73)", "values": [{"measurement": "probe-labelled cysteine peptide fold change", "setting": "10 µM", "result": 0.00255}, {"measurement": "probe-labelled cysteine peptide fold change", "setting": "50 µM", "result": 0.0381}]}
{"target": "SAE1_Q9UBE0_214_VVFCPVK (UniProt Q9UBE0)", "values": [{"measurement": "probe-labelled cysteine peptide fold change", "setting": "10 µM", "result": 0.0407}, {"measurement": "probe-labelled cysteine peptide fold change", "setting": "50 µM", "result": -0.00828}]}
{"target": "RPUSD2_Q8IZ73_502_AVETDVMNQETDPLCAECR (UniProt Q8IZ73)", "values": [{"measurement": "probe-labelled cysteine peptide fold change", "setting": "10 µM", "result": -0.169}, {"measurement": "probe-labelled cysteine peptide fold change", "setting": "50 µM", "result": -0.12}]}
{"target": "SACM1L_Q9NTJ5_445_NAWADNANACAK (UniProt Q9NTJ5)", "values": [{"measurement": "probe-labelled cysteine peptide fold change", "setting": "10 µM", "result": -0.0638}, {"measurement": "probe-labelled cysteine peptide fold change", "setting": "50 µM", "result": -0.203}]}
{"target": "RSF1_Q96T23_562_TALSSTESCTMKGEEK (UniProt Q96T23)", "values": [{"measurement": "probe-labelled cysteine peptide fold change", "setting": "10 µM", "result": -0.216}, {"measurement": "probe-labelled cysteine peptide fold change", "setting": "50 µM", "result": -0.493}]}
